# Measured values as given in PMC8384837.
# Where a chain is given by its changes, count along the chain named. The list shows a part of the results. For some of these results: At the low end of the ranking the order means little.
# How the values were obtained:
# Conditions in all cases: yeast three-hybrid, YBZ-1, SC-Leu-His + 0.5 mM 3-AT, 4 days
# [1] = biological target: T1, PUM1 PUF domain R7-GSR S1079G + N1080S + E1083R (Homo sapiens) (UniProt Q14671)
# T1 sequence: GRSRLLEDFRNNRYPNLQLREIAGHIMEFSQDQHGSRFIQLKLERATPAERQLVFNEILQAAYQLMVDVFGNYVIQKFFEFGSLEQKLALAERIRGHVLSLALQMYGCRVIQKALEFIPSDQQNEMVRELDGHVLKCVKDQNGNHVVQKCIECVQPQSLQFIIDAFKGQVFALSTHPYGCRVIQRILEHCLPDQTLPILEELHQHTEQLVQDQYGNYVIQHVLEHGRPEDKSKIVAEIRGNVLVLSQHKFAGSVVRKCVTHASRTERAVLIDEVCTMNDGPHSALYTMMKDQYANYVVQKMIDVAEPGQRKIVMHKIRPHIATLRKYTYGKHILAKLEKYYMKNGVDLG
# [2] = biological target: T2, PUM1 PUF domain R7-GSV S1079G + N1080S + E1083V (UniProt Q14671)
# T2 sequence: T1 sequence with R256V
# [3] = biological target: T3, PUM1 PUF domain R7-GTR S1079G + N1080T + E1083R (Homo sapiens) (UniProt Q14671)
# T3 sequence: T1 sequence with S253T
# [4] = biological target: T4, PUM1 PUF domain R7-GTS S1079G + N1080T + E1083S (UniProt Q14671)
# T4 sequence: T1 sequence with S253T, R256S
# [5] = biological target: T5, PUM1 PUF domain R7-GVD S1079G + N1080V + E1083D (UniProt Q14671)
# T5 sequence: T1 sequence with S253V, R256D
# [6] = biological target: T6, PUM1 PUF domain R7-GVK S1079G + N1080V + E1083K (Homo sapiens) (UniProt Q14671)
# T6 sequence: T1 sequence with S253V, R256K
# [7] = biological target: T7, PUM1 PUF domain R7-GVN S1079G + N1080V + E1083N (UniProt Q14671)
# T7 sequence: T1 sequence with S253V, R256N
# [8] = biological target: T8, PUM1 PUF domain R7-GVV S1079G + N1080V + E1083V (Homo sapiens) (UniProt Q14671)
# T8 sequence: T1 sequence with S253V, R256V
# [9] = biological target: T9, PUM1 PUF domain R7-IMG S1079I + N1080M + E1083G (UniProt Q14671)
# T9 sequence: T1 sequence with G252I, S253M, R256G
# [10] = biological target: T10, PUM1 PUF domain R7-ISG S1079I + N1080S + E1083G (UniProt Q14671)
# T10 sequence: T1 sequence with G252I, R256G
# [11] = biological target: T11, PUM1 PUF domain R7-ISR S1079I + N1080S + E1083R (Homo sapiens) (UniProt Q14671)
# T11 sequence: T1 sequence with G252I
# [12] = biological target: T12, PUM1 PUF domain R7-ISS S1079I + N1080S + E1083S (UniProt Q14671)
# T12 sequence: T1 sequence with G252I, R256S
# [13] = biological target: T13, PUM1 PUF domain R7-KGG S1079K + N1080G + E1083G (Homo sapiens) (UniProt Q14671)
# T13 sequence: T1 sequence with G252K, S253G, R256G
# [14] = biological target: T14, PUM1 PUF domain R7-KGS S1079K + N1080G + E1083S (Homo sapiens) (UniProt Q14671)
# T14 sequence: T1 sequence with G252K, S253G, R256S
# [15] = biological target: T15, PUM1 PUF domain R7-KGV S1079K + N1080G + E1083V (Homo sapiens) (UniProt Q14671)
# T15 sequence: T1 sequence with G252K, S253G, R256V
# [16] = biological target: T16, PUM1 PUF domain R7-LER S1079L + N1080E + E1083R (UniProt Q14671)
# T16 sequence: T1 sequence with G252L, S253E
# [17] = biological target: T17, PUM1 PUF domain R7-LFD S1079L + N1080F + E1083D (UniProt Q14671)
# T17 sequence: T1 sequence with G252L, S253F, R256D
# [18] = biological target: T18, PUM1 PUF domain R7-LMF S1079L + N1080M + E1083F (UniProt Q14671)
# T18 sequence: T1 sequence with G252L, S253M, R256F
# [19] = biological target: T19, PUM1 PUF domain R7-LNA S1079L + E1083A (Homo sapiens) (UniProt Q14671)
# T19 sequence: T1 sequence with G252L, S253N, R256A
# [20] = biological target: T20, PUM1 PUF domain R7-LNG S1079L + E1083G (Homo sapiens) (UniProt Q14671)
# T20 sequence: T1 sequence with G252L, S253N, R256G
# [21] = biological target: T21, PUM1 PUF domain R7-LPT S1079L + N1080P + E1083T (UniProt Q14671)
# T21 sequence: T1 sequence with G252L, S253P, R256T
# [22] = biological target: T22, PUM1 PUF domain R7-LSC S1079L + N1080S + E1083C (Homo sapiens) (UniProt Q14671)
# T22 sequence: T1 sequence with G252L, R256C
# [23] = biological target: T23, PUM1 PUF domain R7-LSS S1079L + N1080S + E1083S (UniProt Q14671)
# T23 sequence: T1 sequence with G252L, R256S
# [24] = biological target: T24, PUM1 PUF domain R7-LST S1079L + N1080S + E1083T (Homo sapiens) (UniProt Q14671)
# T24 sequence: T1 sequence with G252L, R256T
# [25] = biological target: T25, PUM1 PUF domain R7-LSV S1079L + N1080S + E1083V (Homo sapiens) (UniProt Q14671)
# T25 sequence: T1 sequence with G252L, R256V
sequence,measurement,setting,value
GGCUAGAACUAGUGGAUCCCCCGGCGCCCGGCGGCUCGAGCCCGGGUAAGUCUAAAUAGUCUGCAUGCCGCCGGGCGCCAUGCCUGCAGGUCGACUCUAGAAAACAUG,binding signal (log2 enrichment (interaction score)),[1],-2.24
same,binding signal (log2 enrichment (interaction score)),[2],-8.08
same,binding signal (log2 enrichment (interaction score)),[3],-5.13
same,binding signal (log2 enrichment (interaction score)),[4],< -9.6
same,binding signal (log2 enrichment (interaction score)),[5],< -9.46
same,binding signal (log2 enrichment (interaction score)),[6],-6.04
same,binding signal (log2 enrichment (interaction score)),[7],< -9
same,binding signal (log2 enrichment (interaction score)),[8],-4.12
same,binding signal (log2 enrichment (interaction score)),[9],< -7.47
same,binding signal (log2 enrichment (interaction score)),[10],< -10.2
same,binding signal (log2 enrichment (interaction score)),[11],-2.31
same,binding signal (log2 enrichment (interaction score)),[12],< -8.18
same,binding signal (log2 enrichment (interaction score)),[13],-1.66
same,binding signal (log2 enrichment (interaction score)),[14],-0.38
same,binding signal (log2 enrichment (interaction score)),[15],-0.97
same,binding signal (log2 enrichment (interaction score)),[16],< -10.2
same,binding signal (log2 enrichment (interaction score)),[17],< -8.65
same,binding signal (log2 enrichment (interaction score)),[18],< -7.91
same,binding signal (log2 enrichment (interaction score)),[19],-3.8
same,binding signal (log2 enrichment (interaction score)),[20],-2.32
same,binding signal (log2 enrichment (interaction score)),[21],< -9.1
same,binding signal (log2 enrichment (interaction score)),[22],-3.56
same,binding signal (log2 enrichment (interaction score)),[23],< -11.3
same,binding signal (log2 enrichment (interaction score)),[24],-6.04
same,binding signal (log2 enrichment (interaction score)),[25],-2.85

# Two entries drawn at random from the list so far, as already listed:
sequence,measurement,setting,value
GGCUAGAACUAGUGGAUCCCCCGGCGCCCGGCGGCUCGAGCCCGGGUAAGUCUAAAUAGUCUGCAUGCCGCCGGGCGCCAUGCCUGCAGGUCGACUCUAGAAAACAUG,binding signal (log2 enrichment (interaction score)),[23],< -11.3
same,binding signal (log2 enrichment (interaction score)),[7],< -9
